Drawing on US4186198 (dated 1980), this text covers step yield for one substance.

This data set is described as follows: general procedure: solution-phase peptide synthesis; OSu active ester. The following applies: late stage modification step.

Regarding “L-(pyro)glutamyl-L-seryl-Glycyl-Glycine amide (pGlu-Ser-Gly-Gly(NH2))”, the step yield worked out at 50%.
